Results taken from the supplement of paper PMC9578143, “Small-Molecule Ebselen Binds to YTHDF Proteins Interfering with the Recognition of N^6-Methyladenosine-Modified RNAs” (ACS Pharmacology & Translational Science, 2022).
This is one part of the list. Plates or batches differ in their baseline, so values are only roughly comparable.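 Hits were defined as a z-score below −3.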

molecular target: T1, YTHDF1 YTH domain (aa 365-554) (UniProt Q9BYJ9); test: tryptophan fluorescence intensity z-score (mean); higher = higher fluorescence, less quenching (negative = binding / quenching); settings: 10 µM
T1 sequence (whole entry): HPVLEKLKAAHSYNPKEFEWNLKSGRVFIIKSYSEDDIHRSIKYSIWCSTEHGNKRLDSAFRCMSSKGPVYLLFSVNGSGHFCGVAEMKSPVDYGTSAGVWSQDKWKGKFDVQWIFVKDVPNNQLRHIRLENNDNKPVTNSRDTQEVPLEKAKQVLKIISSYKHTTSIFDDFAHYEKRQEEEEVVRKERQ

Tryptophan fluorescence intensity z-score, inactive:
CC(C)[C@H]1CC[C@H](C(=O)N[C@H](Cc2ccccc2)C(=O)O)CC1 (plate: M 9-10) -0.264
COc1ccc(C(C)=O)c(O)c1 (plate: M 21-22) -0.0188
COC(=O)[C@@H]1OC(=O)C2OC23[C@@]1(C)CCC1[C@]2(C)C(C[C@@H](O)[C@]13C)C(C)(C)[C@H](OC(C)=O)C[C@@H]2OC(C)=O (some centres undefined) (plate: M 15-16) 0.538
CCCCOc1ccc(OCCCN2CCOCC2)cc1 (plate: M 7-8) 0.296
CC1CCc2cc(F)cc3c(=O)c(C(=O)O)cn1c23 (centres undefined) (plate: M 7-8) 0.311
COc1cc2c(cc1OC)-c1c(oc3cc(O)cc(O)c3c1=O)CO2 (plate: M 17-18) 0.315
CC(=O)O[C@H]1CC[C@]2(C)[C@H]3CC=C4[C@@H]5CC(C)(C)CC[C@]5(C(=O)O)CC[C@@]4(C)[C@]3(C)CC[C@H]2C1(C)C (plate: M 15-16) 0.897
CC(C)[C@@H]1CC[C@@H](C)C[C@H]1OC(=O)c1ccccc1 (plate: M 21-22) 0.363
S=P(N1CC1)(N1CC1)N1CC1 (plate: M 9-10) -0.0103
Cc1cc(O)cc(=O)o1 (plate: M 21-22) -0.0285
COc1ccc2c(c1)OCC(Cc1ccc(OC)c(OC)c1)C2=O (centres undefined) (plate: M 15-16) -0.32
CC[C@]12CCCN3CCc4c(n(c5ccccc45)[C@@](O)(C(=O)OC)C1)[C@@H]32 (plate: M 17-18) 0.187
COc1ccc([C@H]2Oc3cc(OC)cc(OC)c3C[C@H]2O)cc1 (plate: M 15-16) 0.399
O=C(O)/C=C/c1ccccc1 (plate: M 21-22) 0.251
Nc1ccc(S(N)(=O)=O)cc1 (plate: M 5-6) 0.995
Nc1ncnc2c1ncn2[C@H]1C[C@H](O)[C@@H](CO)O1 (plate: M 19-20) 0.528
CCOc1nc2cccc(C(=O)OC(C)OC(=O)OC3CCCCC3)c2n1Cc1ccc(-c2ccccc2-c2nn[nH]n2)cc1 (centres undefined) (plate: M 9-10) -0.771
CC1=CCCC(C)=CCC(C)(C)C=CC1 [HUMULENE(alpha)] (plate: M 17-18) 0.0752
OC[C@H]1O[C@@H](O[C@H]2[C@H](O)[C@@H](O)[C@@H](O)O[C@@H]2CO)[C@H](O)[C@@H](O)[C@@H]1O (plate: M 19-20) 0.809

2 entries picked at random from those above:
Tryptophan fluorescence intensity z-score, inactive:
Nc1ncnc2c1ncn2[C@H]1C[C@H](O)[C@@H](CO)O1 (plate: M 19-20) 0.528
CC[C@]12CCCN3CCc4c(n(c5ccccc45)[C@@](O)(C(=O)OC)C1)[C@@H]32 (plate: M 17-18) 0.187
